# Data taken from the supplement of paper PMC12819154, “High-throughput peptide-centric local stability assay extends protein–ligand identification to membrane proteins, tissues and bacteria” (Nature Structural & Molecular Biology, 2025).
# Amino acid sequences for entries named in this document (tags omitted). A change or cut given only in a name is not applied to a line headed by its entry.
# UniProt Q92738: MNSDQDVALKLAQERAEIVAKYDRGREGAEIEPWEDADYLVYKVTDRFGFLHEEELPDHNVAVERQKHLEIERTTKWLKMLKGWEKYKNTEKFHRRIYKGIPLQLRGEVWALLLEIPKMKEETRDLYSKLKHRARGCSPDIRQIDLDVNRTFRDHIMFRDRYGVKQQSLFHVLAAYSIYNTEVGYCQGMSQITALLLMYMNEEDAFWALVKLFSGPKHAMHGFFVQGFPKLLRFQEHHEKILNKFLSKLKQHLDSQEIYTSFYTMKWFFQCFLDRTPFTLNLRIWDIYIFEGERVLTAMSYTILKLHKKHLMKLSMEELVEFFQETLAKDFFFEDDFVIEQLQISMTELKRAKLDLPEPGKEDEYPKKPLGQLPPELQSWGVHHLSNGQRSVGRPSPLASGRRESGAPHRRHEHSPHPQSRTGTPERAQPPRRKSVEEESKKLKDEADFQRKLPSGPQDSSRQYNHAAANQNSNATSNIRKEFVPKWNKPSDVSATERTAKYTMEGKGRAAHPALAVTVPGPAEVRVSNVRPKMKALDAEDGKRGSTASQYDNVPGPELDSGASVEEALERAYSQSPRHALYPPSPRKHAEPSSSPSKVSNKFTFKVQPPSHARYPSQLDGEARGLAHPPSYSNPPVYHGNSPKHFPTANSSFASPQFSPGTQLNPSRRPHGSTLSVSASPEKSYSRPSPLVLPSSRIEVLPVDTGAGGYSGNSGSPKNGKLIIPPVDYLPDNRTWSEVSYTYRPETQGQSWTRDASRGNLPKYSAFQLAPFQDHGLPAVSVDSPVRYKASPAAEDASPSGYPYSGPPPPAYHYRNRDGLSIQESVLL
# UniProt Q92793, whole entry, looked up: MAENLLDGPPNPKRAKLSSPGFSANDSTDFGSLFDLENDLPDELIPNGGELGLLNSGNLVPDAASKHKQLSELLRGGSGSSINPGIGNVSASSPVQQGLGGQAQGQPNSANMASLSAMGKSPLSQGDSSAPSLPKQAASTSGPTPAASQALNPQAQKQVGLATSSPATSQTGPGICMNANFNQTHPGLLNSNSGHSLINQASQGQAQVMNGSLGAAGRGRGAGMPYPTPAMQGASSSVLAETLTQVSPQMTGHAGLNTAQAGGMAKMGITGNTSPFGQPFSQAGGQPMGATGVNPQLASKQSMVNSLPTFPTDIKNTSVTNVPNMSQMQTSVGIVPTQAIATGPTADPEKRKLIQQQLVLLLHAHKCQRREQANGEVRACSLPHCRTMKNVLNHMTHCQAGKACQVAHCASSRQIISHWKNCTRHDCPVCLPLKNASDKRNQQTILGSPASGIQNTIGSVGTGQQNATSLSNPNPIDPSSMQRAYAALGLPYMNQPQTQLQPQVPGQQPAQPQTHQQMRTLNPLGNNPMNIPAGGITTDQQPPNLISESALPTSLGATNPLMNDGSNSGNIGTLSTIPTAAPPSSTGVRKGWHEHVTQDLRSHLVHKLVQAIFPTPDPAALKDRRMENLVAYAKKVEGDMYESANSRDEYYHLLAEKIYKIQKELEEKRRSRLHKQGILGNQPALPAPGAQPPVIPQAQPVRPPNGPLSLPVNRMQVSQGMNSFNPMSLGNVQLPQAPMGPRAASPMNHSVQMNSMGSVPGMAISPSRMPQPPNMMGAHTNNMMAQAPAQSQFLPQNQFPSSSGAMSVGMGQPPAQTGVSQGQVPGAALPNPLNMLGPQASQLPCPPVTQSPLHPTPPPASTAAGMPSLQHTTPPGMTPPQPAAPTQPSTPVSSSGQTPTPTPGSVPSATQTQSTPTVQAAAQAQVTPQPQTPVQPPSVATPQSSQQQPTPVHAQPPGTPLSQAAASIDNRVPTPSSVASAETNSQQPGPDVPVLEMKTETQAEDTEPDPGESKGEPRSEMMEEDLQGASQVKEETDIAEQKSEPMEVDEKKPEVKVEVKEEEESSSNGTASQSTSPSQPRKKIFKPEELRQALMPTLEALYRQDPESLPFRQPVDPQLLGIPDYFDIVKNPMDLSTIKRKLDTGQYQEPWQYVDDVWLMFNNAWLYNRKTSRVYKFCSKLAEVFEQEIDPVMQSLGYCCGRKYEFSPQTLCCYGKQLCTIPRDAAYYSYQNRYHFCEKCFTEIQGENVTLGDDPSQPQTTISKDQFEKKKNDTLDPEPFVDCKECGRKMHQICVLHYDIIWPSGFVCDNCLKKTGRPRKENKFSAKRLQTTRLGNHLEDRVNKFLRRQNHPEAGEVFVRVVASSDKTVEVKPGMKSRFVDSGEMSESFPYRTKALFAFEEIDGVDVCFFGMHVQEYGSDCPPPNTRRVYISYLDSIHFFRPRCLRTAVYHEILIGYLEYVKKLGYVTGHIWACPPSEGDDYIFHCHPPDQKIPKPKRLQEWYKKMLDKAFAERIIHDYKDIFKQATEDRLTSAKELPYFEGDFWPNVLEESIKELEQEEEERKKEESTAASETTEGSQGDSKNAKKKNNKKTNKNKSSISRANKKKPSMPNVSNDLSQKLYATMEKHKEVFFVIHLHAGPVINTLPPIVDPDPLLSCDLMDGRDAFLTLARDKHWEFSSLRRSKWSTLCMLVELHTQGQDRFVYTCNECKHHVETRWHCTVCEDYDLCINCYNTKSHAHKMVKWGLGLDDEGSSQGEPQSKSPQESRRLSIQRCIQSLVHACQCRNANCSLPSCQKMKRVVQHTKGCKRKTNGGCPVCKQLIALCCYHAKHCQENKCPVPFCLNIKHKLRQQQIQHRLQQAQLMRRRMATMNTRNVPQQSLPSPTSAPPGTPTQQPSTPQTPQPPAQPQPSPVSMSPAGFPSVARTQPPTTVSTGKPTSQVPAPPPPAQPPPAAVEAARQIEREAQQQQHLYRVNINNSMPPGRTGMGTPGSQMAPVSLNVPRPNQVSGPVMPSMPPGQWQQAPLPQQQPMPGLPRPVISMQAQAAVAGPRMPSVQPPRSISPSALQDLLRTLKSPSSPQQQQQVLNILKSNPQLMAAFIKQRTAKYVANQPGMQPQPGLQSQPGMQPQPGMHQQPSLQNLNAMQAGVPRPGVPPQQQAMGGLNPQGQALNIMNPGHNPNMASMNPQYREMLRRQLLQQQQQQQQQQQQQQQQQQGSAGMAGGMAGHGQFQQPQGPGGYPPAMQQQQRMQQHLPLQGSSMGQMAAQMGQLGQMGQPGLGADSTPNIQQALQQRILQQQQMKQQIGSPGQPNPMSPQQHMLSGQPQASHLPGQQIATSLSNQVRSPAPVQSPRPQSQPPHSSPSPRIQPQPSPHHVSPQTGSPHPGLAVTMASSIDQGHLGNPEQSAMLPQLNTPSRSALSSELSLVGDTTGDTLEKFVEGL
# UniProt Q8WXF1: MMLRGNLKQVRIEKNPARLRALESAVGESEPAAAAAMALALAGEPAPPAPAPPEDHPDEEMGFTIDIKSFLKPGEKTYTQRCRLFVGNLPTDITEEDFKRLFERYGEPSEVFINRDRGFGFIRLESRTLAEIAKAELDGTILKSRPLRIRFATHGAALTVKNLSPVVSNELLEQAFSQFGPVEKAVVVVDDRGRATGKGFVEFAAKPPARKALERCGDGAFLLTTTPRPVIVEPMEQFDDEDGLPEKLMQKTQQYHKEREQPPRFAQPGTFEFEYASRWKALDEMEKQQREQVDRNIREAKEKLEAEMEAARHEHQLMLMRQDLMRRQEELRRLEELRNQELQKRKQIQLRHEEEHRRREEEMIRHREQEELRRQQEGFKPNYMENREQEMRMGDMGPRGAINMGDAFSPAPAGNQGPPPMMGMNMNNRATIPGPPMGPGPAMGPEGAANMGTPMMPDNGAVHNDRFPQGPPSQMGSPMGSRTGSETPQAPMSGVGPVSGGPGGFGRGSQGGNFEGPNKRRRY
# UniProt Q8WWV3: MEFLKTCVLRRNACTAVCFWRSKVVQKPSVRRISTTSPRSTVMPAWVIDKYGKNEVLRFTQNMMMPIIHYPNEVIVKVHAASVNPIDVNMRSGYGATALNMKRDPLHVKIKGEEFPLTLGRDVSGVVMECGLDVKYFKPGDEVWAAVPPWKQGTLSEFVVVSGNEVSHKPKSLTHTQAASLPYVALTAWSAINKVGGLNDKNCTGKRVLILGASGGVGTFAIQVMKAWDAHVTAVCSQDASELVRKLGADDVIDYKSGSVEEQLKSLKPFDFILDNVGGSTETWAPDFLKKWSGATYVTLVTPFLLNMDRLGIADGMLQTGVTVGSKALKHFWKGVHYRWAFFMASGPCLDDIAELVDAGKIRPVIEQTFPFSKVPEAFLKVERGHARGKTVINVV
# UniProt Q8WUJ0: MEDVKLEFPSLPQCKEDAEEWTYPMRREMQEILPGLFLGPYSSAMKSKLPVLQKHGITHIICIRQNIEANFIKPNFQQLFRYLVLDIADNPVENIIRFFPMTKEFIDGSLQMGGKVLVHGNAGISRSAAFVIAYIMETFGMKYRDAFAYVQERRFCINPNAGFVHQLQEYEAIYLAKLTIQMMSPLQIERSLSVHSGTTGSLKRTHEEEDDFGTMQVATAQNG
# UniProt Q92784, whole entry: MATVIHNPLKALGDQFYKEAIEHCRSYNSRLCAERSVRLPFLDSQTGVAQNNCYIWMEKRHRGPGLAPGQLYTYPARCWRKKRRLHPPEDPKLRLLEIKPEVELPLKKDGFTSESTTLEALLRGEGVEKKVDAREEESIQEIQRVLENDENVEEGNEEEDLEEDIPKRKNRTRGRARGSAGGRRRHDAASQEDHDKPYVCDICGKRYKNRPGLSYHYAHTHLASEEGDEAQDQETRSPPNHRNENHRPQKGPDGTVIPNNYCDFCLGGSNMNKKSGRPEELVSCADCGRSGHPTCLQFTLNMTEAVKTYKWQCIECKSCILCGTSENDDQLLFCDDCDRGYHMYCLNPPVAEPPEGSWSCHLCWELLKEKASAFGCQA
# UniProt Q92574: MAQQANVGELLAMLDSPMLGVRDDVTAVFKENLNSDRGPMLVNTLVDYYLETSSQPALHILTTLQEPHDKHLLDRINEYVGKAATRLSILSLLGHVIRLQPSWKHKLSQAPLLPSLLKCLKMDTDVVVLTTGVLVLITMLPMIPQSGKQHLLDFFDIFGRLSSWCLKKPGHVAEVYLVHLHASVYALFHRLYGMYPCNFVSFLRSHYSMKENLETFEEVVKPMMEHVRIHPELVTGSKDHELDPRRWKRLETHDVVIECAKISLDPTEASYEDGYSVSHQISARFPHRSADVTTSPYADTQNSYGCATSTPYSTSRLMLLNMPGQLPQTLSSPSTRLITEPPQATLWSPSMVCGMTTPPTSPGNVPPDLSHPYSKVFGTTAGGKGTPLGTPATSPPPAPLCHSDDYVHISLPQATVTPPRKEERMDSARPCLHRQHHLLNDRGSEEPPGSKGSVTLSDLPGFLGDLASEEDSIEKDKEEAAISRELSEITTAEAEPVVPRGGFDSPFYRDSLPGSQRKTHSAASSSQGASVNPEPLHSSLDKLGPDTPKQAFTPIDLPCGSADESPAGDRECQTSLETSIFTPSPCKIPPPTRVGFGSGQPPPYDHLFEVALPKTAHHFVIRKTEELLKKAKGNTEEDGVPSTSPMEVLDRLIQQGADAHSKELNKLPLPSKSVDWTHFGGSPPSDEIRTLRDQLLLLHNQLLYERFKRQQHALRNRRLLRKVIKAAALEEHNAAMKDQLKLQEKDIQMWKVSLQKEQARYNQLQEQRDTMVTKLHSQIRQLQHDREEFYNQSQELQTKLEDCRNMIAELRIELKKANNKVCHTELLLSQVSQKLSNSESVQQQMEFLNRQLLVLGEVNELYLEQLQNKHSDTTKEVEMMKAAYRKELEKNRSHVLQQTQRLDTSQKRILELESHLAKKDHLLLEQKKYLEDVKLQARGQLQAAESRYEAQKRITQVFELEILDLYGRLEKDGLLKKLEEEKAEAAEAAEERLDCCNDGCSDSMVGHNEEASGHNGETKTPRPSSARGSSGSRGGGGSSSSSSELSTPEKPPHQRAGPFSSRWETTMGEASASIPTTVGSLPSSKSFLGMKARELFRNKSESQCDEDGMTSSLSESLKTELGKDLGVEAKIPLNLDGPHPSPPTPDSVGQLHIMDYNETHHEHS
# UniProt Q8WXX5: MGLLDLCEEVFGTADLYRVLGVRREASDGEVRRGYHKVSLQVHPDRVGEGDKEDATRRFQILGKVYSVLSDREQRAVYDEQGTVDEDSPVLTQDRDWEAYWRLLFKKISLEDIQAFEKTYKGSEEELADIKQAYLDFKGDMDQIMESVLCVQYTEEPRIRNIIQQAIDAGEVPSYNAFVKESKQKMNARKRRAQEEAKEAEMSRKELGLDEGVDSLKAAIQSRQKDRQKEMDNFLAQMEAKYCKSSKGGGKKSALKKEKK
# The list shows a part of the results. Small differences around the control level are noise.
# Compound: CN[C@@H]1C[C@H]2O[C@@](C)([C@@H]1OC)n1c3ccccc3c3c4c(c5c6ccccc6n2c5c31)C(=O)NC4 [staurosporine]
# Test: log2 fold change of tryptic peptide abundance, ligand vs vehicle (limited proteolysis) (log2 ratio); higher = more trypsin-susceptible (destabilized)
# Settings: ligand concentration: 20 uM; sample: K562 cleared lysate; digestion: 4 min, 22 C (HT-PELSA RT4min, Orbitrap Astral)
row,Target,log2 fold change
1,"USP6NL (peptide sequence: KLPSGPQDSSR, peptide start residue: 452) (UniProt Q92738)",0.403
2,"CREBBP (peptide sequence: SPAPVQSPRPQSQPPHSSPSPR, peptide start residue: 2345) (UniProt Q92793)",-0.534
3,"PSPC1 (peptide sequence: DRGFGFIR, peptide start residue: 116) (UniProt Q8WXF1)",0.37
4,"RTN4IP1 (peptide sequence: RDPLHVK, peptide start residue: 103) (UniProt Q8WWV3)",0.148
5,"STYX (peptide sequence: SLSVHSGTTGSLKR, peptide start residue: 191) (UniProt Q8WUJ0)",0.0847
6,"DPF3 (peptide sequence: KSGRPEELVSCADCGR, peptide start residue: 274) (UniProt Q92784)",0.386
7,"TSC1 (peptide sequence: AAALEEHNAAMK, peptide start residue: 726) (UniProt Q92574)",0.88
8,"DNAJC9 (peptide sequence: VSLQVHPDR, peptide start residue: 38) (UniProt Q8WXX5)",0.364
9,"UniProt Q92615 (peptide sequence: YREPPALK, peptide start residue: 693)",0.401
